Experimental findings from PMC5487381, “Thioredoxin A Is Essential for Motility and Contributes to Host Infection of Listeria monocytogenes via Redox Interactions” (Frontiers in Cellular and Infection Microbiology, 2017) are described below.

Sequences of proteins named here, by UniProt entry; tags and fusion partners are left off.
UniProt P22262: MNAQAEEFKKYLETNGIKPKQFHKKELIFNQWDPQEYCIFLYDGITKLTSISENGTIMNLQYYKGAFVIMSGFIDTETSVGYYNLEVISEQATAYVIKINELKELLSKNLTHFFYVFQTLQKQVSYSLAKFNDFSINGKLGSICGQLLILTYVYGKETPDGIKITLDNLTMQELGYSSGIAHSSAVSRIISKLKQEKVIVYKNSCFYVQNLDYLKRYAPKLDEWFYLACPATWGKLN

This experiment addresses PrfA, the central virulence regulator of Listeria (Listeria monocytogenes EGD-e) (UniProt P22262). Put plainly: ITC; TrxA, TrxAox or TrxA active-site mutants (80-200 uM) in the syringe, PrfA, MogR, GmaR or MogR and GmaR (8-20 uM) in the cuvette; 25 C; 25 mM Tris-HCl pH 7.5, 100 mM NaCl; 15 uL injections, 300 s spacing; 1:1 binding model; both purified. In general terms: ITC needs no label: the signal is the heat of the interaction.

Results are given in words; binding and its absence hold for the method and conditions named. Some results given as binding are weak or reduced against the parent protein; the word gives no strength.

B1: oxidized forms of TrxA (TrxAox) (enzyme, UniProt P0A4L3 1-103)
chain: MVKEITDATFEQETSEGLVLTDFWATWCGPCRMVAPVLEEIQEERGEALKIVKMDVDENPETPGSFGVMSIPTLLIKKDGEVVETIIGYRPKEELDEVINKYV
modifications: oxidized form (residues not stated)
Regarding B1, the binding result is listed as “binds weakly”.
